From patent US10835616B2 (POLYTHERICS LIMITED, priority 2014, dated 2020) come the findings set out here.

The subject of data set [1] is Fab of trastuzumab produced by papain digestion. Description: PEGylation at a reduced Fab disulfide bond, HIC HPLC (Example 43). The following applies: 22 h, 22° C., 1.5 eq. reagent per Fab.
Data set [2] can be described thus: general procedure: peptide synthesis; HATU/NMM. The conditions noted are these: conjugation step.

Take `COCCOCCOCCOCCOCCOCCOCCOCCOCCOCCOCCOCCOCCOCCOCCOCCOCCOCCOCCOCCOCCOCCOCCOCCNC(=O)c1ccc(C(=O)C(CS(=O)(=O)CCOCCOCCOCCOCCOCCOCCOC)CS(=O)(=O)CCOCCOCCOCCOCCOCCOCCOC)cc1F` [Reagent 63, bis-mPEG(7u)-sulfone-propanoyl-2-fluoro-benzamide-PEG(24u)]: the “% conversion to PEGylated Fab” value in data set [1] was 95%. The same measure, in the same setting: next, `COCCOCCOCCOCCOCCOCCOCCNCC(CNCCOCCOCCOCCOCCOCCOCCOC)C(=O)c1ccc(C(=O)NCCOCCOCCOCCOCCOCCOCCOCCOCCOCCOCCOCCOCCOCCOCCOCCOCCOCCOCCOCCOCCOCCOCCOCCOCCC(=O)OC(C)(C)C)cc1` [Reagent 68, bis-mPEG(7u)-amino-propanoyl-benzamide-PEG(24u)-^tButyl ester]: 90%; `COCCOCCOCCOCCOCCOCCOCCSC1=C(SCCOCCOCCOCCOCCOCCOCCOC)C(=O)N(CCOCCOCCOCCOCCOCCOCCOCCOCCOCCOCCOCCOCCOCCOCCOCCOCCOCCOCCOCCOCCOCCOCCOCCOCCC(=O)O)C1=O` [Reagent 70, bis-mPEG(7u)-maleimide-PEG(24u)-acid]: 90%.

In data set [2], “Bis-mPEG(7u)sulfone-propanoyl-benzamide-L-Glu-(val-cit-PAB-MMAE)-Glu-[HN-PEG(12u)-Me]2” returned a conjugation yield of 69%.
